Reference: patent publication EP3766512A1
No constants are given. Whether binding was seen depends on the method and setting. Some results given as binding are weak or reduced against the parent protein; the word gives no strength.

By UniProt entry, the sequences of proteins in these tests, tags left out. Where a name states a change or a piece, a line headed by the entry shows the natural chain unless it says otherwise. Residues count along the entry.
UniProt P19909, residues 303-497: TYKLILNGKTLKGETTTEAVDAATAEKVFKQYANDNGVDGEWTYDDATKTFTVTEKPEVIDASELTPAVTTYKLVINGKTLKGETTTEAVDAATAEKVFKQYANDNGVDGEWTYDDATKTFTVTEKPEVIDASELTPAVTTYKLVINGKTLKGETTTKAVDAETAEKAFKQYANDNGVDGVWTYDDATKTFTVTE
UniProt P29460: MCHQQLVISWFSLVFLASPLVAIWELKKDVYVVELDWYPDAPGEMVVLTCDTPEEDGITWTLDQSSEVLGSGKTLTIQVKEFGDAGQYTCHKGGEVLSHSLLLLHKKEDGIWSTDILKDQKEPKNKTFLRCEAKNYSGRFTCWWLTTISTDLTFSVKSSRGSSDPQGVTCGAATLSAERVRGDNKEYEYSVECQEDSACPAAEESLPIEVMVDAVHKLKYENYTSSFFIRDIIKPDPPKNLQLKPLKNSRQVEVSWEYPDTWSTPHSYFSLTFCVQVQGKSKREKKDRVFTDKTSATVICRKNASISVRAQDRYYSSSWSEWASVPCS

The substances below were run against Protein G (chromatography bead) (UniProt P19909) (assay: Protein G affinity chromatography bead).

binding, binds:
human IL-12Fc AAA (from UniProt P29460 23-328; P29459 23-219) (Fc fusion)
human IL-12Fc AAE (from UniProt P29460 23-328; P29459 23-219) (Fc fusion)
human IL-12Fc AAH (from UniProt P29460 23-328; P29459 23-219) (Fc fusion)
human IL-12Fc AAQ (from UniProt P29460 23-328; P29459 23-219) (Fc fusion)
human IL-12Fc AHH (from UniProt P29460 23-328; P29459 23-219) (Fc fusion)
human IL-12Fc AHQ (from UniProt P29460 23-328; P29459 23-219) (Fc fusion)
human IL-12Fc IAQ (from UniProt P29460 23-328; P29459 23-219) (Fc fusion)
human IL-12Fc NHH (from UniProt P29460 23-328; P29459 23-219) (Fc fusion)
human IL-12Fc WT (from UniProt P29460 23-328; P29459 23-219) (Fc fusion)
